According to PubChem BioAssay AID1487 (National Center for Advancing Translational Sciences (NCATS), 2009):
Some of the results follow. Further columns of the screen follow, without active or inactive calls. Compounds called inactive in the main read-out are mostly missing here. The note in brackets gives the kind of curve behind each potency; many fits are weak.

Experiment: qHTS Assay for Modulators of Lamin A Splicing
Conditions: HeLa LMNA splicing GFP/RFP minigene ratio, 48 h
How it was run: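 S3 HeLa stable clones carrying a lamin A-EGFP splicing minigene plus DsRed2 were seeded at 600 cells/well in Opti-MEM with 2% FBS, pin-dosed and incubated 48 h at 37°C. Acumen cytometry (488 nm) gave the GFP/RFP total-intensity ratio.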

[1] = measured here: GFP splicing reporter channel
[2] = measured here: RFP viability control channel

Row | Structure (SMILES) | AC50 [1] | AC50 [2]
1 | O=C(Nc1ccc(S(=O)(=O)NCc2ccccc2)cc1)c1ccc(Br)o1 | 15.8 µM [rising, single point] | 12.6 µM [rising, partial curve]
2 | COc1ccc(CCC(=O)N2CCN(S(=O)(=O)c3ccc4ccccc4c3)CC2)cc1 | 12.6 µM [rising, partial curve] | 17.8 µM [rising, single point]
3 | COc1ccc(N2C(=O)CS(=O)(=O)C23C(=O)N(Cc2ccc(C)cc2)c2ccccc23)cc1Cl (stereo unspecified) | – | 14.1 µM [rising, single point]
4 | O=c1c2c(ncn2C2CCCC2)n(Cc2ccccc2)c(=O)n1CCOc1ccc(Br)cc1 | – | 10 µM [rising, partial curve]
5 | O=C1c2cccnc2C(Nc2cccc(F)c2)N1Cc1ccco1 (stereo unspecified) | – | 0.0891 µM [rising, full curve]
6 | Cc1sc(NC(=O)Cc2ccc3c(c2)OCO3)nc1-c1ccc2c(c1)CCN2C(=O)c1cccc(F)c1 | 3.55 µM [rising, partial curve] | 4.47 µM [rising, full curve]
7 | COC(=O)CCCC1=CC2=CC(=O)C(C)(OC(=O)c3cccs3)C(=O)C2=CN1C1CCCCC1 (stereo unspecified) | – | 0.0112 µM [falling, full curve, poor fit]
8 | Cc1cccc(Cc2cnc(N3C(=N)SC(C)C3=O)s2)c1 (stereo unspecified) | – | 15.8 µM [rising, single point]
9 | Cc1nc2sc(C(=O)c3ccccc3)c(N)c2c(C)c1C | 11.2 µM [falling, partial curve] | –
10 | CCn1c2ccccc2c2cc(/C=N/NC(=O)c3ccccc3C)ccc21 | – | 4.47 µM [rising, single point]
11 | Cc1ccccc1CSc1ccc(-c2ccc3c(c2)OCO3)nn1 | 17.8 µM [rising, single point] | 35.5 µM [rising, single point]
12 | O=C(Nn1c(C2CCCCC2)nc2ccccc2c1=O)c1ccc([N+](=O)[O-])cc1 | 15.8 µM [falling, single point] | –
13 | CCOC(=O)N1CCC(NS(=O)(=O)c2cc(Br)cnc2N)CC1 | 7.94 µM [rising, partial curve] | –
14 | CC(C)CCN(C(=O)Nc1ccccc1)C(C)c1cccs1 (stereo unspecified) | 1.78 µM [falling, partial curve] | 35.5 µM [falling, partial curve]
15 | S=c1[nH]nc(-c2ccco2)n1-c1ccccc1Cl | 5.62 µM [rising, partial curve, poor fit] | –
16 | Cc1cc(C(=O)N2CCN(c3ncccn3)CC2)c2cc(F)ccc2n1 | 11.2 µM [rising, single point] | –

In another format: results already given.
Row	Structure (SMILES)	AC50 [1]	AC50 [2]
3	COc1ccc(N2C(=O)CS(=O)(=O)C23C(=O)N(Cc2ccc(C)cc2)c2ccccc23)cc1Cl (stereo unspecified)	–	14.1 µM [rising, single point]
4	O=c1c2c(ncn2C2CCCC2)n(Cc2ccccc2)c(=O)n1CCOc1ccc(Br)cc1	–	10 µM [rising, partial curve]
5	O=C1c2cccnc2C(Nc2cccc(F)c2)N1Cc1ccco1 (stereo unspecified)	–	0.0891 µM [rising, full curve]
